Experimental data from paper PMC11189303.

Chains of the proteins cited; added tags and fusions are not shown.
UniProt O60826: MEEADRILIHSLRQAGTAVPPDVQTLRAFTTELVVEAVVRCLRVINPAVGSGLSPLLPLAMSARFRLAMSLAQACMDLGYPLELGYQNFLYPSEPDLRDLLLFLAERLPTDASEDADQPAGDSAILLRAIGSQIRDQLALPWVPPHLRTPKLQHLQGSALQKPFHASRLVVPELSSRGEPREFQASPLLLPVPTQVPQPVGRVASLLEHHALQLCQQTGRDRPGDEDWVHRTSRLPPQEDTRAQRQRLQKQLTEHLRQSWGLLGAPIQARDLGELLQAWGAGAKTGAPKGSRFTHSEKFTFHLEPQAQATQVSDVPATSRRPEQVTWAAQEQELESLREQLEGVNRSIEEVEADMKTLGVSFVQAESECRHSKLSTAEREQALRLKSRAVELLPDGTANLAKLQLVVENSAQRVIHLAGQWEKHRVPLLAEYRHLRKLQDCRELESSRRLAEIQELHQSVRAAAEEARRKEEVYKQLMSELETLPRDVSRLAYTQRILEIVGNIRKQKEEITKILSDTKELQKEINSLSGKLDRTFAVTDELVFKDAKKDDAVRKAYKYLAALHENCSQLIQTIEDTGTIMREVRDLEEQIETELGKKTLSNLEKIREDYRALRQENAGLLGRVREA
UniProt Q9Y6G5: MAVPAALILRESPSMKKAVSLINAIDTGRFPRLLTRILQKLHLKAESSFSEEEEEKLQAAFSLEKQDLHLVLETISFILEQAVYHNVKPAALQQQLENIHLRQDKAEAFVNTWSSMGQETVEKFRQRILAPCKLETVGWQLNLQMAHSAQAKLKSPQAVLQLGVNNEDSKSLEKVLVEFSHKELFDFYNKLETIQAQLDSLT
UniProt Q8N668: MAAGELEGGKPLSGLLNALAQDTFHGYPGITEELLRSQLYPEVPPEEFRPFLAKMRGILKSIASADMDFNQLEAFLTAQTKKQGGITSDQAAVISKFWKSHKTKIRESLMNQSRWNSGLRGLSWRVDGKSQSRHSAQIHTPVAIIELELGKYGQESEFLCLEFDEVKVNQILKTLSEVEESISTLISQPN
UniProt Q8TCE6: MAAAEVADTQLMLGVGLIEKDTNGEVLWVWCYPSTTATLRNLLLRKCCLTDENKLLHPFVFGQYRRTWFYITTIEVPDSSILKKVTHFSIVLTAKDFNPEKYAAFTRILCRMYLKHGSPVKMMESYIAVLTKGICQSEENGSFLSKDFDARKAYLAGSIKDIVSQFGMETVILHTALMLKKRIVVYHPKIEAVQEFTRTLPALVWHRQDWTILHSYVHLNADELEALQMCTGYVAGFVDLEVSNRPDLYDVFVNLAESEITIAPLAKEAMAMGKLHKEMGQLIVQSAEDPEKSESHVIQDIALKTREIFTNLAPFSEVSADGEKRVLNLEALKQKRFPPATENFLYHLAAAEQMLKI

How the values were obtained:
[1] = target: VPS26C (human) (UniProt O14972); assay: proximity labelling; BioID–MS: MAC-tagged (BirA*) bait in Flp-In T-REx 293, tetracycline and 50 μM biotin 24 h; lysis with 0.1% SDS and benzonase, Strep-Tactin beads; high-confidence interactions by SAINTexpress and CRAPome
[2] = target: CCDC22 (human) (UniProt O60826); assay: as above
[3] = target: CCDC22 (human) (UniProt O60826); assay: affinity purification with mass spectrometry; MAC-tagged bait stably expressed in Flp-In T-REx 293 (tetracycline 24 h); cleared lysate (50 mM HEPES pH 8.0, 150 mM NaCl, 0.5% IGEPAL) on Strep-Tactin beads, eluted with biotin; high-confidence interactions by SAINTexpress (BFDR < 0.05) and CRAPome against MAC-tagged GFP controls
[4] = target: COMMD10 (human) (UniProt Q9Y6G5); assay: proximity labelling; BioID–MS: MAC-tagged (BirA*) bait in Flp-In T-REx 293, tetracycline and 50 μM biotin 24 h; lysis with 0.1% SDS and benzonase, Strep-Tactin beads; high-confidence interactions by SAINTexpress and CRAPome
[5] = target: VPS35L (human) (UniProt Q7Z3J2); assay: as above
[6] = target: COMMD1 (human) (UniProt Q8N668); assay: as above
[7] = target: DENN domain-containing protein 10 (human) (UniProt Q8TCE6); assay: as above

B1: F-actin capping protein CAPZA3 (protein, UniProt Q96KX2 1-299)
chain: MTLSVLSRKDKERVIRRLLLQAPPGEFVNAFDDLCLLIRDEKLMHHQGECAGHQHCQKYSVPLCIDGNPVLLSHHNVMGDYRFFDHQSKLSFKYDLLQNQLKDIQSHGIIQNEAEYLRVVLLCALKLYVNDHYPKGNCNMLRKTVKSKEYLIACIEDHNYETGECWNGLWKSKWIFQVNPFLTQVTGRIFVQAHFFRCVNLHIEISKDLKESLEIVNQAQLALSFARLVEEQENKFQAAVLEELQELSNEALRKILRRDLPVTRTLIDWHRILSDLNLVMYPKLGYVIYSRSVLCNWII
binding [1]: binds

B3: HAUS1 (protein, UniProt Q96CS2 1-278)
chain: MEPQEERETQVAAWLKKIFGDHPIPQYEVNPRTTEILHHLSERNRVRDRDVYLVIEDLKQKASEYESEAKYLQDLLMESVNFSPANLSSTGSRYLNALVDSAVALETKDTSLASFIPAVNDLTSDLFRTKSKSEEIKIELEKLEKNLTATLVLEKCLQEDVKKAELHLSTERAKVDNRRQNMDFLKAKSEEFRFGIKAAEEQLSARGMDASLSHQSLVALSEKLARLKQQTIPLKKKLESYLDLMPNPSLAQVKIEEAKRELDSIEAELTRRVDMMEL
binding [3]: binds

B6: HAUS5 (protein, UniProt O94927 1-633)
chain: MELAQEARELGCWAVEEMGVPVAARAPESTLRRLCLGQGADIWAYILQHVHSQRTVKKIRGNLLWYGHQDSPQVRRKLELEAAVTRLRAEIQELDQSLELMERDTEAQDTAMEQARQHTQDTQRRALLLRAQAGAMRRQQHTLRDPMQRLQNQLRRLQDMERKAKVDVTFGSLTSAALGLEPVVLRDVRTACTLRAQFLQNLLLPQAKRGSLPTPHDDHFGTSYQQWLSSVETLLTNHPPGHVLAALEHLAAEREAEIRSLCSGDGLGDTEISRPQAPDQSDSSQTLPSMVHLIQEGWRTVGVLVSQRSTLLKERQVLTQRLQGLVEEVERRVLGSSERQVLILGLRRCCLWTELKALHDQSQELQDAAGHRQLLLRELQAKQQRILHWRQLVEETQEQVRLLIKGNSASKTRLCRSPGEVLALVQRKVVPTFEAVAPQSRELLRCLEEEVRHLPHILLGTLLRHRPGELKPLPTVLPSIHQLHPASPRGSSFIALSHKLGLPPGKASELLLPAAASLRQDLLLLQDQRSLWCWDLLHMKTSLPPGLPTQELLQIQASQEKQQKENLGQALKRLEKLLKQALERIPELQGIVGDWWEQPGQAALSEELCQGLSLPQWRLRWVQAQGALQKLCS
binding [3]: binds

B8: TFDP2 (protein, UniProt Q14188 1-446)
chain: MTAKNVGLTSTNAEVRGFIDQNLSPTKGNISFVAFPVSNTNSPTKILPKTLGPINVNVGPQMIISTPQRLTSSGSVLIGSPYTPAPAMVTQTHIAEATGWVPGDRKRARKFIDSDFSESKRSKKGDKNGKGLRHFSMKVCEKVQRKGTTSYNEVADELVSEFTNSNNHLAADSAYDQKNIRRRVYDALNVLMAMNIISKEKKEIKWIGLPTNSAQECQNLEIEKQRRIERIKQKRAQLQELLLQQIAFKNLVQRNRQNEQQNQGPPALNSTIQLPFIIINTSRKTVIDCSISSDKFEYLFNFDNTFEIHDDIEVLKRMGMSFGLESGKCSLEDLKLAKSLVPKALEGYITDISTGPSWLNQGLLLNSTQSVSNLDLTTGATLPQSSVNQGLCLDAEVALATGQFLAPNSHQSSSAASHCSESRGETPCSFNDEDEEDDEEDSSSPE
binding [6]: binds

The remaining lines, values ahead:

binding [2]: binds
B2: TTLL5 (protein, UniProt Q6EMB2 1-1281)
chain: MPIVMARDLEETASSSEDEEVISQEDHPCIMWTGGCRRIPVLVFHADAILTKDNNIRVIGERYHLSYKIVRTDSRLVRSILTAHGFHEVHPSSTDYNLMWTGSHLKPFLLRTLSEAQKVNHFPRSYELTRKDRLYKNIIRMQHTHGFKAFHILPQTFLLPAEYAEFCNSYSKDRGPWIVKPVASSRGRGVYLINNPNQISLEENILVSRYINNPLLIDDFKFDVRLYVLVTSYDPLVIYLYEEGLARFATVRYDQGAKNIRNQFMHLTNYSVNKKSGDYVSCDDPEVEDYGNKWSMSAMLRYLKQEGRDTTALMAHVEDLIIKTIISAELAIATACKTFVPHRSSCFELYGFDVLIDSTLKPWLLEVNLSPSLACDAPLDLKIKASMISDMFTVVGFVCQDPAQRASTRPIYPTFESSRRNPFQKPQRCRPLSASDAEMKNLVGSAREKGPGKLGGSVLGLSMEEIKVLRRVKEENDRRGGFIRIFPTSETWEIYGSYLEHKTSMNYMLATRLFQDRMTADGAPELKIESLNSKAKLHAALYERKLLSLEVRKRRRRSSRLRAMRPKYPVITQPAEMNVKTETESEEEEEVALDNEDEEQEASQEESAGFLRENQAKYTPSLTALVENTPKENSMKVREWNNKGGHCCKLETQELEPKFNLMQILQDNGNLSKMQARIAFSAYLQHVQIRLMKDSGGQTFSASWAAKEDEQMELVVRFLKRASNNLQHSLRMVLPSRRLALLERRRILAHQLGDFIIVYNKETEQMAEKKSKKKVEEEEEDGVNMENFQEFIRQASEAELEEVLTFYTQKNKSASVFLGTHSKISKNNNNYSDSGAKGDHPETIMEEVKIKPPKQQQTTEIHSDKLSRFTTSAEKEAKLVYSNSSSGPTATLQKIPNTHLSSVTTSDLSPGPCHHSSLSQIPSAIPSMPHQPTILLNTVSASASPCLHPGAQNIPSPTGLPRCRSGSHTIGPFSSFQSAAHIYSQKLSRPSSAKAGSCYLNKHHSGIAKTQKEGEDASLYSKRYNQSMVTAELQRLAEKQAARQYSPSSHINLLTQQVTNLNLATGIINRSSASAPPTLRPIISPSGPTWSTQSDPQAPENHSSSPGSRSLQTGGFAWEGEVENNVYSQATGVVPQHKYHPTAGSYQLQFALQQLEQQKLQSRQLLDQSRARHQAIFGSQTLPNSNLWTMNNGAGCRISSATASGQKPTTLPQKVVPPPSSCASLVPKPPPNHEQVLRRATSQKASKGSSAEGQLNGLQSSLNPAAFVPITSSTDPAHTKI

binding [4]: binds
B4: membrane-bound NF-kB regulator TRIM13 (protein, UniProt O60858 1-407)
chain: MELLEEDLTCPICCSLFDDPRVLPCSHNFCKKCLEGILEGSVRNSLWRPAPFKCPTCRKETSATGINSLQVNYSLKGIVEKYNKIKISPKMPVCKGHLGQPLNIFCLTDMQLICGICATRGEHTKHVFCSIEDAYAQERDAFESLFQSFETWRRGDALSRLDTLETSKRKSLQLLTKDSDKVKEFFEKLQHTLDQKKNEILSDFETMKLAVMQAYDPEINKLNTILQEQRMAFNIAEAFKDVSEPIVFLQQMQEFREKIKVIKETPLPPSNLPASPLMKNFDTSQWEDIKLVDVDKLSLPQDTGTFISKIPWSFYKLFLLILLLGLVIVFGPTMFLEWSLFDDLATWKGCLSNFSSYLTKTADFIEQSVFYWEQVTDGFFIFNERFKNFTLVVLNNVAEFVCKYKLL

binding [5]: binds
B5: UBL4A (protein, UniProt P11441 1-157)
chain: MQLTVKALQGRECSLQVPEDELVSTLKQLVSEKLNVPVRQQRLLFKGKALADGKRLSDYSIGPNSKLNLVVKPLEKVLLEEGEAQRLADSPPPQVWQLISKVLARHFSAADASRVLEQLQRDYERSLSRLTLDDIERLASRFLHPEVTETMEKGFSK

binding [5]: binds
B7: TMED5 (protein, UniProt Q9Y3A6 28-229)
chain: FTPSLDSDFTFTLPAGQKECFYQPMPLKASLEIEYQVLDGAGLDIDFHLASPEGKTLVFEQRKSDGVHTVETEVGDYMFCFDNTFSTISEKVIFFELILDNMGEQAQEQEDWKKYITGTDILDMKLEDILESINSIKSRLSKSGHIQTLLRAFEARDRNIQESNFDRVNFWSMVNLVVMVVVSAIQVYMLKSLFEDKRKSRT

binding [2]: binds
binding [7]: binds
B9: endosomal transport protein FKBP15 (protein, UniProt Q5T1M5 1-1219)
chain: MFGAGDEDDTDFLSPSGGARLASLFGLDQAAAGHGNEFFQYTAPKQPKKGQGTAATGNQATPKTAPATMSTPTILVATAVHAYRYTNGQYVKQGKFGAAVLGNHTAREYRILLYISQQQPVTVARIHVNFELMVRPNNYSTFYDDQRQNWSIMFESEKAAVEFNKQVCIAKCNSTSSLDAVLSQDLIVADGPAVEVGDSLEVAYTGWLFQNHVLGQVFDSTANKDKLLRLKLGSGKVIKGWEDGMLGMKKGGKRLLIVPPACAVGSEGVIGWTQATDSILVFEVEVRRVKFARDSGSDGHSVSSRDSAAPSPIPGADNLSADPVVSPPTSIPFKSGEPALRTKSNSLSEQLAINTSPDAVKAKLISRMAKMGQPMLPILPPQLDSNDSEIEDVNTLQGGGQPVVTPSVQPSLHPAHPALPQMTSQAPQPSVTGLQAPSAALMQVSSLDSHSAVSGNAQSFQPYAGMQAYAYPQASAVTSQLQPVRPLYPAPLSQPPHFQGSGDMASFLMTEARQHNTEIRMAVSKVADKMDHLMTKVEELQKHSAGNSMLIPSMSVTMETSMIMSNIQRIIQENERLKQEILEKSNRIEEQNDKISELIERNQRYVEQSNLMMEKRNNSLQTATENTQARVLHAEQEKAKVTEELAAATAQVSHLQLKMTAHQKKETELQMQLTESLKETDLLRGQLTKVQAKLSELQETSEQAQSKFKSEKQNRKQLELKVTSLEEELTDLRVEKESLEKNLSERKKKSAQERSQAEEEIDEIRKSYQEELDKLRQLLKKTRVSTDQAAAEQLSLVQAELQTQWEAKCEHLLASAKDEHLQQYQEVCAQRDAYQQKLVQLQEKCLALQAQITALTKQNEQHIKELEKNKSQMSGVEAAASDPSEKVKKIMNQVFQSLRREFELEESYNGRTILGTIMNTIKMVTLQLLNQQEQEKEESSSEEEEEKAEERPRRPSQEQSASASSGQPQAPLNRERPESPMVPSEQVVEEAVPLPPQALTTSQDGHRRKGDSEAEALSEIKDGSLPPELSCIPSHRVLGPPTSIPPEPLGPVSMDSECEESLAASPMAAKPDNPSGKVCVREVAPDGPLQESSTRLSLTSDPEEGDPLALGPESPGEPQPPQLKKDDVTSSTGPHKELSSTEAGSTVAGAALRPSHHSQRSSLSGDEEDELFKGATLKALRPKAQPEEEDEDEVSMKGRPPPTPLFGDDDDDDDIDWLG

These are yes or no findings as the source states them, for the method shown. In cells and extracts the contact can be indirect. These calls come from enrichment with a bait or labelling near it, and not all partners need be listed. Each block holds one binder with its values, some of them ahead of it.
